From PubChem BioAssay AID540256 (National Center for Advancing Translational Sciences (NCATS), 2011)
In all, about 300,000 compounds went through this assay and about 3,700 (1.2%) were called active. The inconclusive results got no clear call from the source; some entries with a clear call stand among them for comparison. Calls come from the whole dose curve; tested in HEK293 cells. Potencies of inconclusive entries are doubtful fits and often do not repeat.
% is set by controls: 0 for no effect and ±100 for the full control effect; potency is the fitted concentration of half-maximal effect.

Experiment: qHTS for Inhibitors of binding or entry into cells for Lassa Virus; note: nearly all actives have a fitted effect of over 50% in size
Conditions: Lassa virus pseudotype entry inhibition, cell reporter; activity change, negative = inhibition: at 37.9 µM (top of the series) unless noted
For `O=C(CSCCO)Nc1ccc(C23CC4CC(CC(C4)C2)C3)cc1`, the Potency was inconclusive: 25.9 µM [inhibitor, partial curve, poor fit].
With `Cc1ccc(-c2nn(C)c(=O)c3ccccc23)cc1CNC(=O)NC1CCCCC1` the Potency was inconclusive: 5.62 µM [inhibitor, single point].
In the case of `CNC(=S)N(CCc1c(C)[nH]c2ccccc12)Cc1cccnc1`, the “activity change, negative = inhibition” value is reported as inactive: -23.3% [at 46.1 µM].
In the case of `Cc1ccc2c(c1)c1c(c(=O)n(-c3ccccc3C)c(=O)n1CC(=O)NCCC1=CCCCC1)n2C`, the “activity change, negative = inhibition” value is reported as inactive: -1.51% [at 46.1 µM].
In the case of `CCOc1ccc(C(CCc2ccccc2)NC(=O)c2ccccc2OC)cc1OCC` (stereo not given), the “activity change, negative = inhibition” value is reported as inactive: -27.3%.
In the case of `COc1ccc(CNCc2c(C(=O)O)c(C)n(Cc3ccc(Cl)cc3)c2C)c(OC)c1`, the “activity change, negative = inhibition” value is reported as inactive: -13.9% [at 46.1 µM].
For `Cc1cc(OCCN2CCOCC2)ccc1C(C)C`, the Potency was inconclusive: 35.5 µM [activator, single point].
In the case of `CCCCN1CC(CO)Oc2cccc(F)c2S1(=O)=O` (stereo not given), the Potency is reported as inconclusive: 0.223 µM [inhibitor, full curve, poor fit].
With `Cc1cccc(C(=O)N2c3ccccc3C(=O)OC2c2ccc3c(c2)OCO3)c1` (stereo not given) the “activity change, negative = inhibition” value was inactive: -0.129%.
With `Cc1ccc(/C=C/C(=O)OCC(=O)N2CC(=O)Nc3ccccc32)o1` the “activity change, negative = inhibition” value was inactive: -3.89%.
With `O=C(Nc1nn[nH]n1)c1cccc(Oc2ccccc2)c1` the “activity change, negative = inhibition” value was inactive: 3.45%.
With `COc1ccc(S(=O)(=O)n2ccc(-c3ccc(OCCN(C)c4ccccn4)cc3)n2)cc1` the Potency was inconclusive: 0.517 µM [inhibitor, partial curve, poor fit].
In the case of `Cc1ccc(/C=N/n2c(=O)c(C(C)(C)C)nn3cnnc23)cc1`, the “activity change, negative = inhibition” value is reported as inactive: 5.8%.
For `O=C(N/N=C/c1c[nH]c2ccc(Br)cc12)c1ccn(Cc2ccc(Cl)cc2)n1`, the Potency was inconclusive: 22.4 µM [inhibitor, partial curve, poor fit].
For `Cc1nn(CC(=O)NCCc2ccccc2Cl)c(=O)c2nn(-c3ccccc3)c(C)c12`, the “activity change, negative = inhibition” value was inactive: 9.59% [at 46.1 µM].
In the case of `COCCn1c(SCC(=O)Nc2ccc(NC(=O)c3ccco3)c(OC)c2)nc2ccccc2c1=O`, the Potency is reported as inconclusive: 6.51 µM [inhibitor, single point].
For `COc1ccccc1Nc1ccc(S(=O)(=O)N2CCCCC2)cc1[N+](=O)[O-]`, the “activity change, negative = inhibition” value was inactive: -2.19%.
For `Cc1ccc(OCCNC(=O)c2ccccc2SCC(=O)N2CCCC2)cc1`, the “activity change, negative = inhibition” value was inactive: -3.95%.
For `C=CCn1c(-c2cccc(OC)c2OC)n[nH]c1=S`, the “activity change, negative = inhibition” value was inactive: -26.3%.
For `O=C(CCN1CCOCC1)NNC(=O)/C(=C/c1ccccc1)NC(=O)c1ccccc1`, the Potency was active: 11.2 µM.
In the case of `CCOc1ccc(OCCC(=O)Nc2cccc(S(=O)(=O)N3CCCC3)c2)cc1`, the Potency is reported as inconclusive: 35.5 µM [inhibitor, single point].
For `COc1cccc(/C=N/N2CCN(C)CC2)c1`, the “activity change, negative = inhibition” value was inactive: -0.376%.
For `COc1ccccc1C(=O)N1CCN(c2nc3cc(C)c(C)cc3cc2C#N)CC1`, the Potency was active: 10 µM.
For `COc1ccc2oc(=O)c(C(=O)N3CCN(c4ccccc4C)CC3)cc2c1`, the Potency was inconclusive: 3.26 µM [activator, full curve, poor fit].
With `CCOc1ccc(S(=O)(=O)N(CC(=O)N/N=C/c2cccs2)c2ccc(C)cc2)cc1` the Potency was inconclusive: 23.1 µM [inhibitor, single point].
For `O=C(Nc1ccc(N2CCCCC2)c(Cl)c1)c1ncn[nH]1`, the Potency was inconclusive: 15.8 µM [inhibitor, single point].
For `Cc1cccc(Nc2nc(N)c([N+](=O)[O-])c(N3CC(C)CC(C)C3)n2)c1` (stereo not given), the Potency was inconclusive: 10 µM [inhibitor, partial curve, poor fit].
For `Cc1ccc(C)c(NS(=O)(=O)c2ccc(NC(=O)c3ccco3)cc2)c1`, the Potency was inconclusive: 4.11 µM [inhibitor, full curve, poor fit].
In the case of `COc1ccc(NC(=O)c2cc(-c3cc(OC)c(OC)c(OC)c3)nc3ccccc23)c(OC)c1`, the Potency is reported as inconclusive: 6.31 µM [inhibitor, partial curve, poor fit].
For `CC12CCC(C(=O)N(CSC(=S)N/N=C\c3ccccc3O)C1=O)C2(C)C` (stereo not given), the Potency was inconclusive: 25.1 µM [inhibitor, single point].
In the case of `O=C1C(I)=CC(=C(c2cc(I)c(O)c(I)c2)c2ccccc2C(=O)O)C=C1I`, the Potency is reported as inconclusive: 0.0125 µM [inhibitor, full curve, poor fit].
For `COc1ccc(/C(C)=N/Nc2nncc3ccccc23)cc1`, the Potency was inconclusive: 0.794 µM [activator, single point].
In the case of `COc1cc(C2C3CN(C)CC=C3C(C#N)=C(N)C2(C#N)C#N)ccc1OC(C)C` (stereo not given), the “activity change, negative = inhibition” value is reported as inactive: 5.24%.
For `CC(=O)N(/N=C/c1ccc(C)cc1)c1nc(CCl)cs1`, the Potency was inconclusive: 15.8 µM [inhibitor, partial curve, poor fit].
For `Oc1[nH]c(N=C2N=c3ccccc3=N2)c2ccccc12`, the Potency was inconclusive: 35.5 µM [inhibitor, single point].
In the case of `Cc1ccc(Cc2nc3ccccc3nc2SCC(=O)Nc2cccc(C(F)(F)F)c2)cc1`, the Potency is reported as inconclusive: 12.6 µM [activator, single point].
With `CCN(CC(=O)NCc1ccc(F)cc1)C(=O)c1ccc(COc2ccccc2)cc1` the Potency was inconclusive: 22.4 µM [inhibitor, single point].
In the case of `Fc1ccccc1CSc1nc2ncc(Br)cc2[nH]1`, the Potency is reported as inconclusive: 6.31 µM [activator, single point].
In the case of `CC1CCCN(c2ccc(C(=O)NCC3CCCO3)cn2)C1` (stereo not given), the Potency is reported as inconclusive: 3.66 µM [activator, single point].
With `Cc1ccc(-c2cc(C(=O)Nc3c(C(=O)c4ccccc4)oc4ccccc34)no2)cc1F` the “activity change, negative = inhibition” value was inactive: -8.85% [at 46.1 µM].
In the case of `COc1ccc(C2C(C#N)=C(N)Oc3c2sc2nc(C)cc(C)c32)cc1` (stereo not given), the Potency is reported as inconclusive: 28.2 µM [inhibitor, single point].
In the case of `COc1ccc(C2C(C#N)=C(C)NC(C)=C2C(=O)OC(C)C)c(OC)c1` (stereo not given), the “activity change, negative = inhibition” value is reported as inactive: -1.66% [at 46.1 µM].
With `O=S(=O)(Nc1nc2ccccc2nc1NCc1ccco1)c1ccc(Cl)cc1` the Potency was inconclusive: 5.62 µM [activator, single point].
With `CCCN(CCC)S(=O)(=O)c1ccc(Cl)c([N+](=O)[O-])c1` the Potency was inconclusive: 35.5 µM [inhibitor, single point].
In the case of `Cc1ccc(Nc2cc(C)c(C#N)c3nc4ccccc4n23)cc1Cl`, the Potency is reported as inconclusive: 8.91 µM [activator, single point].
In the case of `Cc1nn(-c2ccccc2)c(C)c1/C=N/Nc1nc2ccccc2[nH]1`, the Potency is reported as inconclusive: 31.6 µM [inhibitor, single point].
In the case of `CC(C)NS(=O)(=O)c1ccc(CCC(=O)N2CCCCC2)cc1`, the Potency is reported as inconclusive: 3.16 µM [inhibitor, single point].
In the case of `O=C(CN1CCN(c2ncccn2)CC1)Nc1ccccc1-n1cccc1`, the “activity change, negative = inhibition” value is reported as inactive: -16.3%.
In the case of `O=C(CSc1nc(-c2ccccc2)[nH]c1-c1ccccc1)Nc1ccc2c(c1)OCCO2`, the Potency is reported as inconclusive: 10 µM [inhibitor, partial curve, poor fit].
With `COc1cccc(/C=N/NC(=O)c2[nH]c(C)c(C(=O)N/N=C/c3cccc(OC)c3O)c2C)c1O` the Potency was inconclusive: 20 µM [inhibitor, single point].
With `COc1ccc(NS(=O)(=O)c2csc(C(=O)Nc3ccccc3)c2)cc1` the Potency was inconclusive: 11.2 µM [inhibitor, partial curve, poor fit].
In the case of `CCOc1cc(/C=N/NC(=O)CN2CCCCC2)ccc1OCc1ccccc1`, the “activity change, negative = inhibition” value is reported as inactive: 19.5%.
With `CCOC(=O)C1=C(c2ccccc2)N=c2s/c(=C\c3cccc(O)c3)c(=O)n2C1c1cccs1` (stereo not given) the Potency was active: 16.4 µM.
In the case of `COc1ccc(OC)c(S(=O)(=O)n2nnc3cc(Cl)ccc32)c1`, the “activity change, negative = inhibition” value is reported as inactive: 9.38%.
With `Cc1c(C(=O)NCCC2=CCCCC2)oc2ccc(S(=O)(=O)N3CCC4(CC3)OCCO4)cc12` the Potency was inconclusive: 0.0891 µM [inhibitor, full curve, poor fit].
With `COc1ccc(/C=C2\SC(=O)N(CC(=O)NCCC(C)C)C2=O)cc1OC` the “activity change, negative = inhibition” value was inactive: 1.38%.
For `CCc1ccc(CNC(=O)CCCN2C(=O)c3cccnc3Oc3ccc(Cl)cc32)cc1`, the “activity change, negative = inhibition” value was inactive: 2.03% [at 46.1 µM].
With `COc1ccccc1CNC1CCN(Cc2ccccc2)CC1` the Potency was inconclusive: 35.5 µM [inhibitor, partial curve, poor fit].
In the case of `Cc1cc(=O)oc2c1c(C)nn2-c1nn[nH]n1`, the Potency is reported as inconclusive: 18.3 µM [activator, partial curve, poor fit].
With `CC(=O)c1ccc(S(=O)(=O)Nc2ccccc2C(=O)NC2CC2)cc1` the “activity change, negative = inhibition” value was inactive: 21.4%.
For `CCOC(=O)c1ccc(N2C(=O)c3[nH]nc(-c4ccc(OCC)cc4)c3C2c2ccc(OC)cc2OC)cc1` (stereo not given), the Potency was inconclusive: 7.94 µM [inhibitor, partial curve].
For `CCOc1cc(C2CC(=O)Nc3nc(SCc4ccccc4)[nH]c(=O)c32)ccc1O` (stereo not given), the “activity change, negative = inhibition” value was inactive: -0.561% [at 46.1 µM].
For `CCOc1cccc(NC(=O)Cc2cccs2)c1`, the “activity change, negative = inhibition” value was inactive: 10%.
In the case of `O=C(CCC(=O)OCc1ccc(C(=O)Oc2ccc(Cl)cc2)cc1)Nc1ccccc1`, the Potency is reported as inconclusive: 35.5 µM [inhibitor, single point].
In the case of `CCC(C)N1C(=O)S/C(=C/c2ccc(N3CCOCC3)cc2C)C1=O` (stereo not given), the Potency is reported as inconclusive: 5.62 µM [activator, single point].
For `CCCONC(=O)Nc1ccccc1[N+](=O)[O-]`, the “activity change, negative = inhibition” value was inactive: 20.7%.
In the case of `Cc1ccc(OCC(=O)NS(=O)(=O)c2ccc(Cl)cc2)cc1`, the “activity change, negative = inhibition” value is reported as inactive: 20.1%.
For `Cc1sc2nc(SCC(=O)Nc3ccc(Cl)c(C(=O)O)c3)[nH]c(=O)c2c1C`, the Potency was inconclusive: 35.5 µM [inhibitor, single point].
For `O=C(CSc1ccccc1)NCc1ccc2c(c1)CCN2C(=O)c1ccc(F)cc1`, the Potency was inconclusive: 35.5 µM [inhibitor, single point].
For `Cc1ccc(C(=O)NC(=S)Nc2ccc(NC(=O)c3cccc(Cl)c3)cc2)cc1`, the Potency was active: 2.31 µM.
